Data published in paper PMC12101628.
These are yes or no findings as the source states them, for the method shown. In cells and extracts the contact can be indirect. Some results given as binding are weak or reduced against the parent protein; the word gives no strength.

Protein sequences, listed by entry. Tags and fused reporters are not part of them. Residues count along the entry.
UniProt P34741, residues 19-201: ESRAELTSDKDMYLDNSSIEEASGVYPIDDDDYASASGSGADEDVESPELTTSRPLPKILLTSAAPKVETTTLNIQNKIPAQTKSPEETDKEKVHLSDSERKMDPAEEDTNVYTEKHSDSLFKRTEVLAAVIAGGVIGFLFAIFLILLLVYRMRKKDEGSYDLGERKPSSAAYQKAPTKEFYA

Target: T1, heparanase 1 (HPSE) (human (endogenous in SV-HUC-1)) (UniProt Q9Y251)
T1 sequence: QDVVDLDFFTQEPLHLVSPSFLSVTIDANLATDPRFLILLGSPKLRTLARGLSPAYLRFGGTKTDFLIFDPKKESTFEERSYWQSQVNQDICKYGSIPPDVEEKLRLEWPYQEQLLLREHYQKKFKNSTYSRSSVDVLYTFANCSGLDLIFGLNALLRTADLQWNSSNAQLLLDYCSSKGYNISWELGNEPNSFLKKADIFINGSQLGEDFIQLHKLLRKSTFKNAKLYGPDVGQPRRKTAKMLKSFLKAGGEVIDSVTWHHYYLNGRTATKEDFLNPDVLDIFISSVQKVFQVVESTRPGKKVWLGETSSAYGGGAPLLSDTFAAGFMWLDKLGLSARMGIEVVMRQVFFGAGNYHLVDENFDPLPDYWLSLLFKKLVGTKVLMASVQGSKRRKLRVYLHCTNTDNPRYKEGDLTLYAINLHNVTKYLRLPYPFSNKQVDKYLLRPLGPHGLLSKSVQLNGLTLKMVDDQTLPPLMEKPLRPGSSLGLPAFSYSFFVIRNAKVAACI
Assay: co-IP; endogenous proteins in SV-HUC-1 lysate (IP lysate with protease inhibitors); primary antibody on magnetic beads, lysate added at 4 C overnight, Western blot; which protein was precipitated is not told

binding: binds
Substance: syndecan-2 (SDC-2) (from UniProt P34741 19-201)
